According to patent US10058099B2, “Antimicrobial materials and methods” (University of Florida Research Foundation, Inc., priority 2011, dated 2018):
Some entries share one result that the patent states for a list of compounds.

System: E. coli biofilms
Test: Minimum biofilm eradication concentration (MBEC) with the Calgary Biofilm Device
Assay type: cell-based, Escherichia coli K-12
Conditions: 24 h incubation in the dark
Procedure: Escherichia coli K-12 was obtained from the American Type Culture Collection (ATCC #10798), revived in Luria Broth (LB, Sigma) and stored in LB with 20% (v/v) glycerol at −70° C. Stock cultures maintained on agar (2% Difco) plates of LB were used to inoculate 50 mL cultures in liquid LB. E. coli was grown at 37° C. for 18 h. Bacteria were grown as a microbial biofilm using a Calgary Biofilm Device (CBD), commercially available as the MBEC™ assay, featuring 96 pegs protruding down from a microtiter plate lid and fitting into the wells of a standard 96-well microtiter plate. This device allows 96 identical biofilms to grow on the pegs at a time. Biofilms of E. coli were grown in each well using 150 μL of the culture diluted to 1×10^7 CFU (colony forming unit) following previous calibration. The biofilms were grown at 37° C. for 24 h in a shaker at 150 rpm.
The Minimum biofilm eradication concentration (MBEC) is the lowest concentration at which bacteria from a biofilm fail to regrow. The MBEC was also measured using the CBD and detailed procedure has been described elsewhere.^17, 18, 20 Biofilms were formed and washed as described above. The biofilms were then transferred to a plate containing saline with a gradient concentration of the OPEs (challenge plate). […] To determine the MBEC, the growth of bacteria was evaluated in the recovery plate after incubation. […]

CCCCCC[N+]12CC[N+](CCCOc3ccc(C#Cc4ccc(C#Cc5ccc(OCCC[N+]67CC[N+](CCCCCC)(CC6)CC7)cc5)cc4)cc3)(CC1)CC2 [oligomer (B)] was tested, and the “MBEC (dark)” value was 150 to 200 µg/mL.
